Data taken from paper PMC6153294.
These are yes or no findings as the source states them, for the method shown.

The chains behind the UniProt entries cited, without tags or fusion partners. Residues count along the entry.
UniProt Q86Z14, residues 52-967: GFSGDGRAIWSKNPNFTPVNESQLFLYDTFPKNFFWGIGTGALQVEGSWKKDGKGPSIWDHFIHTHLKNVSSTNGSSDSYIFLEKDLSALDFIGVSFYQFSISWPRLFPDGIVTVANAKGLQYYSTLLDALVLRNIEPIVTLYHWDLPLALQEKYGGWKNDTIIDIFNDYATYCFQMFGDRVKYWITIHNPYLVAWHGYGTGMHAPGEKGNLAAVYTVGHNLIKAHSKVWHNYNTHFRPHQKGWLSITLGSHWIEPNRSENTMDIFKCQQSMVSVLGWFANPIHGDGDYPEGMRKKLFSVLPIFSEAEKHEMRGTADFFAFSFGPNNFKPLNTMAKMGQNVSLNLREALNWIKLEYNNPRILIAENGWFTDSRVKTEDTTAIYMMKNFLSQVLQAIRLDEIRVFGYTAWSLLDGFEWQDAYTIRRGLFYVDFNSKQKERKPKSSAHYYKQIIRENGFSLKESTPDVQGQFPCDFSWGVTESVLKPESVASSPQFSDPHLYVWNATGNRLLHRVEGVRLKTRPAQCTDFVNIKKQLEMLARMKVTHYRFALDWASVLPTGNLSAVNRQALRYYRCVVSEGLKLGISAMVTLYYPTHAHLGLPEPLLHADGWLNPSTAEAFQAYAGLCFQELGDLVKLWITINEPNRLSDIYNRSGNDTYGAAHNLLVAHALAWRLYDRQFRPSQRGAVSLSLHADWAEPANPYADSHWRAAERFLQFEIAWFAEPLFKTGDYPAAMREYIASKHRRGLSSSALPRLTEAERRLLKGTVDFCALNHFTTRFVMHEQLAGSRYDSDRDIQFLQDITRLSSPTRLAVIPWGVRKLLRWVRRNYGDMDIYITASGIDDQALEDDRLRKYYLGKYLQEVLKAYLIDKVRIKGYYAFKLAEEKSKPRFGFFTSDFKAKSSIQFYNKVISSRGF

What was measured:
[1] = biological target: full-length extracellular domain of β-Klotho (residues 52–967) (human) (UniProt Q86Z14); experiment: negative stain EM; purified β-Klotho or β-Klotho/Fab 39F7 complex at 10 μg/ml in 25 mM Hepes, pH 7.5, 150 mM NaCl; 2% uranyl acetate; reference-free 2D class averages; both purified
[2] = biological target: full-length extracellular domain of β-Klotho (residues 52–967) (human) (UniProt Q86Z14); experiment: SEC; size-exclusion chromatography profile of full-length β-Klotho (Fig. S2); conditions not given; both purified

binding [1]: no binding
binding [2]: no binding
Substance: full-length extracellular domain of β-Klotho (residues 52–967) (from UniProt Q86Z14 52-967) (domain or fragment)
